Experiment [1] addresses KIR3DL2 mutant M11A4 (E130S, H131S, R145S) (human) (UniProt P43630). Kind of experiment: binding to cells transfected with KIR3DL2 mutants.
Experiment [2] deals with KIR3DL2 mutant having P14S, S15A and H23S substitutions (human) (UniProt P43630). Kind of experiment: binding to KIR3DL2 mutants.

By UniProt entry, the sequences of proteins in these tests, tags left out. Where a name states a change or a piece, a line headed by the entry shows the natural chain unless it says otherwise.
UniProt P43630: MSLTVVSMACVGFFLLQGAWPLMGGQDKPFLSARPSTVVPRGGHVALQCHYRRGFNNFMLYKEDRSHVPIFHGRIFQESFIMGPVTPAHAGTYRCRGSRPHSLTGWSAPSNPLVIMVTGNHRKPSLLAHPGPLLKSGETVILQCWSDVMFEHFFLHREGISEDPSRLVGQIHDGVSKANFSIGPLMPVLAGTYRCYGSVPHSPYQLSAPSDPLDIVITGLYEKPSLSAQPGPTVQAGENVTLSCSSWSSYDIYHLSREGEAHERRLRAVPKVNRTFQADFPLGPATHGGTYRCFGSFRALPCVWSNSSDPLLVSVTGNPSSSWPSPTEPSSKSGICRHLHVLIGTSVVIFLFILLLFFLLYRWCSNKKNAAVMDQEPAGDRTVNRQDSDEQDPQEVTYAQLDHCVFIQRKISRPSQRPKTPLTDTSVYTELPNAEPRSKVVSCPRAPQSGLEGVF

Results are given in words; binding and its absence hold for the method and conditions named. Some entries that bind do so weakly or less than the wild type.

B1: antibody 12B11 (antibody, IgG1, V domains shown)
VH: QLVQSGPELKNPGETVKISCKASGYTFTNYGMNWVKQAPGKGLKWMGWINTYTGEPTYADDFKGRFAFSLETSASTAYLQINNLKNEDTATYFCAHGPWLAYWGQGTLVTVS
VL: DIKMTQSPSSMYASLGERVTITCKASQDINVYLSWFQQKPGKSPKTLIYRAIRLVDGVPSRFSGSGSGQDYSLTISSLDYEDMGIYYCLQYDELPYTFGGGTKLEIE
As to B1, the binding result in experiment [1] is recorded as “binds”.

B2: antibody 2B12 (antibody, V domains shown)
VH: QIQLVQSGPELKKPGETVRISCKASGYTFTTAGMQWVQKTPGKGLKWIGWINSHSGVPKYAEDFKGRFAFSLETSASTAYLQISTLKNEDTATYFCARGGDEGVMDYWGQGTSVTVS
VL: DIVMTQSHKFMSTSLGDRVSFTCKASQDVSTAVAWYQQKPGQSPKLLIYWTSTRHTGVPDRFTGSGSGTDYTLTISSVQAEDLALYYCQQHYSTPWTFGGGTKLEIK
For the molecule B2, the binding result in experiment [2] is on record as “binds”.
